Some entries share one result that the patent states for a list of compounds.
Tested on: Ctenocephalides felis (Cat flea)
Assay: METHOD A: Screening method to test systemicity of compounds against Ctenocephalides felis (Cat flea), artificial dog test with treated bovine blood
Assay type: in vivo
Conditions: test concentration of 500 ppm or less; compound solution in bovine blood (37° C.); 10 adults; assessment at 24 and 48 hours after application

| SMILES | control of Ctenocephalides felis |
| --- | --- |
| CCOC(=O)OCCN(C)c1c(S(=O)(=O)C(F)(F)F)c(C#N)nn1-c1c(Cl)cc(C(F)(F)F)cc1Cl [Compound 6, 1-(2,6-Dichloro-4-trifluoromethylphenyl)-3-cyano-5-{N-methyl-N-[2-(ethoxycarbonyloxy)ethyl]amino}-4-trifluoromethylsulfonylpyrazole] | at least 80% |
| CN(CCOC(=O)c1ccc(C(F)(F)F)cc1)c1c(S(=O)(=O)C(F)(F)F)c(C#N)nn1-c1c(Cl)cc(C(F)(F)F)cc1Cl [Compound 54, 1-(2,6-Dichloro-4-trifluoromethylphenyl)-3-cyano-5-{N-methyl-N-[2-(4-trifluoromethyl-benzoyloxy)ethyl]amino}-4-trifluoromethylsulphonylpyrazole] | at least 80% |
